From paper PMC7518263
No constants are given. Whether binding was seen depends on the method and setting. Binding can be weak; no strength is given.

Target: OgpA H205A/E206A, catalytically inactive variant (Akkermansia muciniphila)
Assay: crystal structure; co-crystallization of OgpA H205A/E206A at 10 mg/ml in 20 mM Tris-HCl pH 7.6 with 2.5 mM GD; 100 mM MIB pH 5.0, 25% PEG 1,500; space group I 4, 2.16 Å; both purified

With GKPRPYSPRPTSHPRPIRV (Gal-GalNAc O-linked on T11) [glycodrosocin O-glycopeptide …(Gal-GalNAc)SHPRPIRV] the binding was “binds”.
